Reference: PMC11868331, “A Phase 1b study of the OxPhos inhibitor ME-344 with bevacizumab in refractory metastatic colorectal cancer” (Investigational New Drugs, 2024)

System: plasma metabolites
Assay: Metabolomic sub-study, untargeted LC-MS/MS of fasting plasma
Assay type: in vivo, human
[1] = in ≥ 4 of 6 patients, baseline vs 6 h after ME-344 administration

With `Cc1c(O)ccc2c1OC[C@@H](c1ccc(O)cc1)[C@H]2c1ccc(O)cc1` [ME-344] the “glutamate, serine, ornithine, proline, asparagine, and hypoxanthine in plasma” value (6 h after ME-344, particularly in subjects longest on therapy) was “acutely decreased”, the “unique metabolites that dynamically changed” value (in at least 4 patients, initial ME-344 administration) was 18 metabolites and the “metabolites with ≥ 20% decrease, negative mode analysis” value [1] was 14 metabolites. The “metabolites with ≥ 20% decrease, positive mode analysis” value [1] was 10 metabolites.
